Values of other authors as cited in patent US11971405B2, “Nanosensors and methods of making and using nanosensors” (Board of Regents, The University of Texas System, priority 2017, dated 2024).

Test system: PC9 (mutant, Sigma-Aldrich) cell line
Details: PC9 cell line (mutant EGFR)

COc1cc2ncnc(Nc3ccc(F)c(Cl)c3)c2cc1OCCCN1CCOCC1 [Gefitinib]
IC50: 4 nM
